# Reference: PubChem BioAssay (Tox21)
# Values joined by “and” are separate entries in the source; they are usually repeats but may differ in a detail not shown here. Identical values can stand only once. Inconclusive means that the source gave no clear call. Such entries were picked first, then a sample of the others. Where the call is inconclusive, the potency comes from a doubtful curve fit. Active and inactive are the calls of the source. The call rests on the fitted dose curve; in most records, active means well fitted curve in the direction sought with a large enough effect in the repeat runs; inconclusive means weak or mixed curves; inactive means no such curve, though single readings can be large; an effect the other way counts as inactive or inconclusive.
# Columns and labels:
# [1] = A CellTox Green Cytotoxicity Assay to monitor cytotoxicity in HEK293 cells - 24 hour (AID 1224875); further: nearly all actives have a fitted effect of over 45% in size
# How it was run: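 Each value comes from one timepoint of a single continuous run in which HEK293 cells with CellTox Green were exposed to compound for up to 40 h at 37 C, dye fluorescence rising with cell death.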
# [2] = A CellTox Green Cytotoxicity Assay to monitor cytotoxicity in HepG2 cells - 16 hour (AID 1224876); further: nearly all actives have a fitted effect of over 45% in size
# How it was run: (§1)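 Continuous culture of HepG2 cells with a membrane-impermeant DNA dye; rising fluorescence marks dead cells. Compound exposure lasted up to 40 h at 37 C, with reads every 8 h from 0 h.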
# [3] = A CellTox Green Cytotoxicity Assay to monitor cytotoxicity in HepG2 cells - 40 hour (AID 1224879); further: nearly all actives have a fitted effect of over 40% in size
# How it was run: as §1
# [4] = qHTS RealTime-Glo MT Cell Viability Assay in HEK293 cells - 40 hour (AID 1224874); settings: RealTime-Glo luminescence; max response: hits give low values; further: nearly all actives have a fitted effect of over 50% in size; on max response: on the % scale 0 is the no-effect control and ±100 the full control effect
# How it was run: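 qHTS format; HEK293 cells with NanoLuc/prosubstrate reagent, 37 C/5% CO2 for 5 h pre-dosing; compounds 23 nL in DMSO; luminescence at each time point reflects viable cells.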
# [5] = A CellTox Green Cytotoxicity Assay to monitor cytotoxicity in HepG2 cells - 24 hour (AID 1224878); further: nearly all actives have a fitted effect of over 45% in size
# How it was run: as §1
# Potency means the concentration at half of the fitted maximal effect.
structure (smiles),measurement,setting,value
O=C(c1ccccc1)C1CCCCC1,Potency,[1],"inconclusive: 21.9 µM [activator, full curve, poor fit]"
same,Potency,[2],active: 43.6 µM
same,Potency,[3],active: 49 µM
Cc1ccc(O)c([C@H](CCN(C(C)C)C(C)C)c2ccccc2)c1,Potency,[4],"inconclusive: 23.9 µM [cytotoxic, partial curve, poor fit]"
Cc1ccc2ccccc2n1,Potency,[1],inactive
same,Potency,[2],active: 0.138 µM
CCCC(C)c1ccccc1O (stereo not drawn),Potency,[1],"inconclusive: 54.9 µM [activator, single point]"
same,Potency,[2],"inconclusive: 38.9 µM [activator, partial curve, poor fit]"
same,Potency,[5],"inconclusive: 30.9 µM [activator, partial curve, poor fit]"
same,Potency,[3],"inconclusive: 38.9 µM [activator, partial curve, poor fit]"
O=c1c(O)c(-c2ccc(O)c(O)c2)oc2cc(O)cc(O)c12,Potency,[4],"inconclusive: 49 µM [cytotoxic, single point] and inconclusive: 49.4 µM [cytotoxic, single point] and inconclusive: 34.7 µM [cytotoxic, partial curve]"
same,Potency,[3],"inconclusive: 17.4 µM [activator, partial curve] and inconclusive: 8.78 µM [activator, full curve, poor fit]"
O=C(CCCN1CCC(O)(c2cccc(C(F)(F)F)c2)CC1)c1ccc(F)cc1,Potency,[4],active: 21.3 µM
same,Potency,[5],"inconclusive: 26.8 µM [activator, single point]"
same,Potency,[3],"inconclusive: 26.8 µM [activator, single point]"
CCCCCCCCCCCCC,max response,[4],inactive: 7.99%
same,Potency,[3],inactive
CCN(CC)c1ccc(C(=C2C=CC(=[N+](CC)CC)C=C2)c2ccc(S(=O)(=O)O)cc2S(=O)(=O)[O-])cc1,max response,[4],inactive: -1.18%
CCCCN1C(=O)c2ccccc2C1=O,max response,[4],inactive: -3.23%
same,Potency,[2],"inconclusive: 56.9 µM [activator, single point]"
same,Potency,[5],"inconclusive: 63.9 µM [activator, single point]"
same,Potency,[3],"inconclusive: 56.9 µM [activator, single point]"
C/C=C(\C)C#N,Potency,[1],inactive
CC1(C)OC[C@@H]2O[C@@]3(C(=O)O)OC(C)(C)O[C@H]3[C@@H]2O1,Potency,[1],inactive
C[C@H]1[C@H]2CC[C@H]3[C@@H]4CC=C5C[C@@H](N(C)C)CC[C@]5(C)[C@H]4CC[C@]23CN1C,Potency,[4],"inconclusive: 19 µM [cytotoxic, partial curve]"
same,Potency,[2],"inconclusive: 15.1 µM [activator, single point]"
same,Potency,[5],"inconclusive: 15.1 µM [activator, single point]"
COc1cccc(CCc2ccccc2OCC(CN(C)C)OC(=O)CCC(=O)O)c1 (stereo not drawn),Potency,[4],"inconclusive: 6.01 µM [cytotoxic, full curve]"
same,Potency,[2],"inconclusive: 26.8 µM [activator, single point]"
same,Potency,[5],"inconclusive: 26.8 µM [activator, single point]"
CCCCCc1ccc(N)cc1,Potency,[1],"inconclusive: 38.9 µM [activator, partial curve, poor fit]"
same,Potency,[2],"inconclusive: 54.9 µM [activator, single point]"
same,Potency,[5],active: 49 µM
OCC1CCCO1 (stereo not drawn),Potency,[1],inactive
NC(=O)NC1NC(=O)NC1=O (stereo not drawn),Potency,[1],"inconclusive: 49 µM [activator, partial curve, poor fit]"
Cc1ccccc1Cl,Potency,[4],"inconclusive: 54.9 µM [rising, partial curve, poor fit]"
same,max response,[4],inactive: 1.86%
CC(C)(CC(=O)O)C(=O)O,max response,[4],inactive: 0.211%
same,Potency,[3],"inconclusive: 61.1 µM [activator, partial curve, poor fit]"
CN1CCC(N(Cc2cccs2)c2ccccc2)CC1,Potency,[1],active: 19 µM
same,Potency,[2],"inconclusive: 9.52 µM [activator, partial curve, poor fit]"
CCCCOc1ccc(CC(=O)NO)cc1,Potency,[4],"inconclusive: 4.25 µM [cytotoxic, partial curve, poor fit]"
same,Potency,[3],"inconclusive: 26.8 µM [activator, single point]"
COc1cc(C(C)(C)C)c(O)c(C(C)(C)C)c1,Potency,[1],active: 43.6 µM
same,Potency,[2],"inconclusive: 54.9 µM [activator, single point]"
same,Potency,[5],"inconclusive: 54.9 µM [activator, single point]"
same,Potency,[3],"inconclusive: 54.9 µM [activator, single point]"
CN(C)c1ccncc1,max response,[4],inactive: -16.5%
